In the supplement of paper PMC7661543:
Differences between knockout arms are mostly noise.

Test system: MDA-MB-231
Assay: relative cell number vs DMSO control (72 h) (% of DMSO); higher = less growth inhibition (more cells)
Procedure: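 QMAP-Seq: a pool of 5 breast cancer cell lines (ZR-75-1, SKBR3, HCC-38, MDA-MB-231, BT-20), each carrying 12 doxycycline-inducible Cas9 sgRNA perturbations (11 knockouts plus non-targeting sgNT), was treated with compounds for 72 h at four 10-fold doses (10 nM-10 uM or 1 nM-1 uM range). Barcodes were amplified and sequenced, and cell number was interpolated from 293T spike-in standard curves. The result is expressed as % of the median of DMSO wells. Two biological replicates.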

O=C1CCC(N2C(=O)c3ccccc3C2=O)C(=O)N1 (configuration not stated) [Thalidomide]
Conditions	relative cell number
sgRNA knockout: sgATF3, 10 nM	105
sgRNA knockout: sgATF3, 100 nM	101
sgRNA knockout: sgATF3, 1000 nM	107
sgRNA knockout: sgATF3, 10000 nM	118
sgRNA knockout: sgATF4, 10 nM	152
sgRNA knockout: sgATF4, 100 nM	94.8
sgRNA knockout: sgATF4, 1000 nM	137
sgRNA knockout: sgATF4, 10000 nM	148
sgRNA knockout: sgATF6, 10 nM	101
sgRNA knockout: sgATF6, 100 nM	83.1
sgRNA knockout: sgATF6, 1000 nM	102.7
sgRNA knockout: sgATF6, 10000 nM	119
sgRNA knockout: sgATG7, 10 nM	100
sgRNA knockout: sgATG7, 100 nM	102
sgRNA knockout: sgATG7, 1000 nM	93.4
sgRNA knockout: sgATG7, 10000 nM	110
sgRNA knockout: sgERN1, 10 nM	103
sgRNA knockout: sgERN1, 100 nM	84.2
sgRNA knockout: sgERN1, 1000 nM	122
sgRNA knockout: sgERN1, 10000 nM	121
sgRNA knockout: sgHSF1, 10 nM	114
sgRNA knockout: sgHSF1, 100 nM	84.2
sgRNA knockout: sgHSF1, 1000 nM	89.8
sgRNA knockout: sgHSF1, 10000 nM	123
sgRNA knockout: sgHSF2, 10 nM	105
sgRNA knockout: sgHSF2, 100 nM	97.9
sgRNA knockout: sgHSF2, 1000 nM	116
sgRNA knockout: sgHSF2, 10000 nM	104
sgRNA knockout: sgKEAP1, 10 nM	91.9
sgRNA knockout: sgKEAP1, 100 nM	96
sgRNA knockout: sgKEAP1, 1000 nM	104
sgRNA knockout: sgKEAP1, 10000 nM	105
sgRNA knockout: sgNFE2L2, 10 nM	130
sgRNA knockout: sgNFE2L2, 100 nM	88.4
sgRNA knockout: sgNFE2L2, 1000 nM	129
sgRNA knockout: sgNFE2L2, 10000 nM	141
sgRNA knockout: sgSLC35F2, 10 nM	97.1
sgRNA knockout: sgSLC35F2, 100 nM	65.3
sgRNA knockout: sgSLC35F2, 1000 nM	108
sgRNA knockout: sgSLC35F2, 10000 nM	124
sgRNA knockout: sgXBP1, 10 nM	104
sgRNA knockout: sgXBP1, 100 nM	79
sgRNA knockout: sgXBP1, 1000 nM	118
sgRNA knockout: sgXBP1, 10000 nM	149

CN(C)c1cc(NC(=O)CNC(C)(C)C)c(O)c2c1C[C@H]1C[C@H]3[C@H](N(C)C)C(O)=C(C(N)=O)C(=O)[C@@]3(O)C(O)=C1C2=O [Tigecycline]
Conditions	relative cell number
sgRNA knockout: sgATF3, 10 nM	110
sgRNA knockout: sgATF3, 100 nM	96.5
sgRNA knockout: sgATF3, 1000 nM	107
sgRNA knockout: sgATF3, 10000 nM	110
sgRNA knockout: sgATF4, 10 nM	99.2
sgRNA knockout: sgATF4, 100 nM	106
sgRNA knockout: sgATF4, 1000 nM	116
sgRNA knockout: sgATF4, 10000 nM	107
sgRNA knockout: sgATF6, 10 nM	82.5
sgRNA knockout: sgATF6, 100 nM	114
sgRNA knockout: sgATF6, 1000 nM	114
sgRNA knockout: sgATF6, 10000 nM	98.3
sgRNA knockout: sgATG7, 10 nM	86.3
sgRNA knockout: sgATG7, 100 nM	100
sgRNA knockout: sgATG7, 1000 nM	91.9
sgRNA knockout: sgATG7, 10000 nM	90.79
sgRNA knockout: sgERN1, 10 nM	106
sgRNA knockout: sgERN1, 100 nM	99.8
sgRNA knockout: sgERN1, 1000 nM	107
sgRNA knockout: sgERN1, 10000 nM	143
sgRNA knockout: sgHSF1, 10 nM	106
sgRNA knockout: sgHSF1, 100 nM	79.7
sgRNA knockout: sgHSF1, 1000 nM	85.2
sgRNA knockout: sgHSF1, 10000 nM	86.7
sgRNA knockout: sgHSF2, 10 nM	99.9
sgRNA knockout: sgHSF2, 100 nM	108
sgRNA knockout: sgHSF2, 1000 nM	100
sgRNA knockout: sgHSF2, 10000 nM	65.3
sgRNA knockout: sgKEAP1, 10 nM	98.2
sgRNA knockout: sgKEAP1, 100 nM	107
sgRNA knockout: sgKEAP1, 1000 nM	89.1
sgRNA knockout: sgKEAP1, 10000 nM	97.4
sgRNA knockout: sgNFE2L2, 10 nM	102
sgRNA knockout: sgNFE2L2, 100 nM	107
sgRNA knockout: sgNFE2L2, 1000 nM	93.4
sgRNA knockout: sgNFE2L2, 10000 nM	71.5
sgRNA knockout: sgSLC35F2, 10 nM	108
sgRNA knockout: sgSLC35F2, 100 nM	106
sgRNA knockout: sgSLC35F2, 1000 nM	121
sgRNA knockout: sgSLC35F2, 10000 nM	110
sgRNA knockout: sgXBP1, 10 nM	97
sgRNA knockout: sgXBP1, 100 nM	107
sgRNA knockout: sgXBP1, 1000 nM	112
sgRNA knockout: sgXBP1, 10000 nM	99.2

CC[C@@]1(O)C(=O)OCc2c1cc1n(c2=O)Cc2cc3c(CN(C)C)c(O)ccc3nc2-1 [Topotecan]
Conditions	relative cell number
sgRNA knockout: sgATF3, 10 nM	71.7
sgRNA knockout: sgATF3, 100 nM	22.8
sgRNA knockout: sgATF3, 1000 nM	11.2
sgRNA knockout: sgATF3, 10000 nM	7.9
sgRNA knockout: sgATF4, 10 nM	84.8
sgRNA knockout: sgATF4, 100 nM	26.2
sgRNA knockout: sgATF4, 1000 nM	16.1
sgRNA knockout: sgATF4, 10000 nM	8.85
sgRNA knockout: sgATF6, 10 nM	86.3
sgRNA knockout: sgATF6, 100 nM	20.6
sgRNA knockout: sgATF6, 1000 nM	19.1
sgRNA knockout: sgATF6, 10000 nM	8.65
sgRNA knockout: sgATG7, 10 nM	75.2
sgRNA knockout: sgATG7, 100 nM	22.4
sgRNA knockout: sgATG7, 1000 nM	14.6
sgRNA knockout: sgATG7, 10000 nM	5.38
sgRNA knockout: sgERN1, 10 nM	74.5
sgRNA knockout: sgERN1, 100 nM	24.9
sgRNA knockout: sgERN1, 1000 nM	16.3
sgRNA knockout: sgERN1, 10000 nM	8.99
sgRNA knockout: sgHSF1, 10 nM	67.4
sgRNA knockout: sgHSF1, 100 nM	20.9
sgRNA knockout: sgHSF1, 1000 nM	17.8
sgRNA knockout: sgHSF1, 10000 nM	10.1
sgRNA knockout: sgHSF2, 10 nM	74.1
sgRNA knockout: sgHSF2, 100 nM	21.4
sgRNA knockout: sgHSF2, 1000 nM	18.3
sgRNA knockout: sgHSF2, 10000 nM	4.6
sgRNA knockout: sgKEAP1, 10 nM	72
sgRNA knockout: sgKEAP1, 100 nM	26.5
sgRNA knockout: sgKEAP1, 1000 nM	13.3
sgRNA knockout: sgKEAP1, 10000 nM	8.94
sgRNA knockout: sgNFE2L2, 10 nM	65.4
sgRNA knockout: sgNFE2L2, 100 nM	22.1
sgRNA knockout: sgNFE2L2, 1000 nM	12.7
sgRNA knockout: sgNFE2L2, 10000 nM	9.58
sgRNA knockout: sgSLC35F2, 10 nM	69.5
sgRNA knockout: sgSLC35F2, 100 nM	22.2
sgRNA knockout: sgSLC35F2, 1000 nM	14.8
sgRNA knockout: sgSLC35F2, 10000 nM	9.15
sgRNA knockout: sgXBP1, 10 nM	81.56
sgRNA knockout: sgXBP1, 100 nM	26.5
sgRNA knockout: sgXBP1, 1000 nM	15.2
sgRNA knockout: sgXBP1, 10000 nM	5.8
